Data published in article PMC11844281.
These are yes or no findings as the source states them, for the method shown. Binding seen in cells or lysates may run through a third protein. Some results given as binding are weak or reduced against the parent protein; the word gives no strength.

Amino acid sequences for entries named in this document (tags omitted).
UniProt Q969H0: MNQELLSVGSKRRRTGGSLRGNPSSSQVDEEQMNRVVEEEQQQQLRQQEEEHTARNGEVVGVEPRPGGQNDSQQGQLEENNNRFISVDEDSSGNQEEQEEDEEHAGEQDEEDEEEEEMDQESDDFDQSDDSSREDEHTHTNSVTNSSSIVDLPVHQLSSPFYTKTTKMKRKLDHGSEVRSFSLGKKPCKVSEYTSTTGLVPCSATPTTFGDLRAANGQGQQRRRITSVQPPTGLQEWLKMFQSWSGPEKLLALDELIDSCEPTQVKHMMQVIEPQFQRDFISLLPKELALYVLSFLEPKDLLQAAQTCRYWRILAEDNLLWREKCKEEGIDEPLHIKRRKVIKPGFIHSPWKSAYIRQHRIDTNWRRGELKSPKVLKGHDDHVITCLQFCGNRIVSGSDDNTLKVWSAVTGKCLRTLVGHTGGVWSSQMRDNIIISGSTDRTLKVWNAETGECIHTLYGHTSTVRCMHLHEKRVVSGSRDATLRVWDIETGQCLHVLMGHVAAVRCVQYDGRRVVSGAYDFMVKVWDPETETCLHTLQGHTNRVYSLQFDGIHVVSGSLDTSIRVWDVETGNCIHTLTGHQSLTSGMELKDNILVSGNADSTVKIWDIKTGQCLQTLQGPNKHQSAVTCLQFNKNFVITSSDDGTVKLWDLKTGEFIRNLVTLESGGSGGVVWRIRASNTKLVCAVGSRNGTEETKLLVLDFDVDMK
UniProt P35222: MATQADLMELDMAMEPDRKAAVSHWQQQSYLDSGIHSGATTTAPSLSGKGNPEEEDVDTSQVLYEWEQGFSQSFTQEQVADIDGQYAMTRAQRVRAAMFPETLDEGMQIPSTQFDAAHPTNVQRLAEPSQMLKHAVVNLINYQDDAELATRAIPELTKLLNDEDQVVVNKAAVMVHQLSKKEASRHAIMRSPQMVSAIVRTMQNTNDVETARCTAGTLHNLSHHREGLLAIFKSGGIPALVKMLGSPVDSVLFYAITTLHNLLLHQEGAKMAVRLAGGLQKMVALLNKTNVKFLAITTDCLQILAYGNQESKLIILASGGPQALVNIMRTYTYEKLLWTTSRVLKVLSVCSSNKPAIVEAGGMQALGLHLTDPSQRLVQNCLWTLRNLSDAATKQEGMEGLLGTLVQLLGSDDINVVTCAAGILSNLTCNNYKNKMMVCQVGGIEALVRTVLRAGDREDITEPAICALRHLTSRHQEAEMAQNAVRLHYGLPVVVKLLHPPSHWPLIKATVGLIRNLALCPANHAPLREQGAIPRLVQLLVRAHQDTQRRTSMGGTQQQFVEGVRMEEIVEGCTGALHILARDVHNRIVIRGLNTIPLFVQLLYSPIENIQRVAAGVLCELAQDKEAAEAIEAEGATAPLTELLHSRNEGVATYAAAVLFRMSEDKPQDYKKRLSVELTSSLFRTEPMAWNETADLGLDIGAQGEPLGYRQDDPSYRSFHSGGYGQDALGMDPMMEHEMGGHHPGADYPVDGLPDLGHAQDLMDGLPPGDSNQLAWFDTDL

Target: T1, Enkurin (ENKUR) (human) (UniProt Q8TC29)
T1 sequence: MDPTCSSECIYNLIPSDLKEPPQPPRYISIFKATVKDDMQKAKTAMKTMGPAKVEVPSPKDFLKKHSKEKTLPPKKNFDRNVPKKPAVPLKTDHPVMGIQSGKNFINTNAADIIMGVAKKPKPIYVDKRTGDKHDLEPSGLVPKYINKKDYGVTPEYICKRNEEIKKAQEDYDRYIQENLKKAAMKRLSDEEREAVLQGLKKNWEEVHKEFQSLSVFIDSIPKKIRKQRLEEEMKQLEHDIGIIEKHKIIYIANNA
Experiment: co-IP; RL95-2 and HEC-1-B cell lysates; Pierce Co-IP kit; antibodies against ENKUR, CTNNB1 or FBXW7, IgG as negative control; 12 h at 4°C; western blotting

binding | Substance
binds | F-box and WD repeat domain containing 7 (FBXW7) (from UniProt Q969H0 1-707)
binds | Catenin beta-1 (CTNNB1, β-catenin) (from UniProt P35222 1-781)
